System: mPanc96 cells
Assay: RNA-Seq transcriptional response to Gem
Type: cell-based, Human
Settings: IC30 Gem for 24 hours
Description: Control sgRNA (CgRNA) and PRMT5-KO cells were treated with gemcitabine (200 nM) or EPZ015666 (500 nM) for 48 hours. Total RNA was purified using an RNeasy mini kit (Qiagen #74104) by following the kit instructions. mRNA was isolated by using NEBNext Poly(A) mRNA Magnetic Isolation Module (New England Biolabs #7490S). RNA-Seq libraries were prepared using the NEBNext Ultra Directional RNA Library Prep Kit for Illumina (New England Biolabs #E7420S) by following the company's protocol. A Qubit measurement and bioanalyzer were used to determine the library quality.
General sequencing data quality was examined using FastQC (v. 0.11.5). […] The resulting sam files were sorted by reading names and converted to bam files using samtools (v. 1.9) sort command. For ATAC-Seq, sequencing reads mapped to mitochondria DNA were removed from the bam files using the samtools view. […] Next, the bam files were quantified against gencode (v27lift37) annotation using Stringtie (v. 1.3.4d) with the default settings.
After obtaining the gene count matrix from Stringtie, we imported it into R and normalized the data following the pipeline of DESeq2. […] By calling the DESeq function, we determined genes with significant expression changes between the PRMT5 WT and KO samples thresholding at an adjusted P value of 0.01. […]

With `Nc1ccn([C@@H]2O[C@H](CO)[C@@H](O)C2(F)F)c(=O)n1` [Gem, 2′,2′-difluoro 2′-deoxycytidine] the genes significantly altered (mPanc96 KO cells) was 1,385 genes and the genes significantly altered (mPanc96 WT cells) was 512 genes.
